No constants are given. Whether binding was seen depends on the method and setting. Binding seen in cells or lysates may run through a third protein. Some results given as binding are weak or reduced against the parent protein; the word gives no strength.
Target: M3R-YFP (muscarinic acetylcholine receptor M3 with YFP fused C-terminally) (UniProt P20309)
Assay: FRET or BRET; single-cell FRET in HEK293T cells transfected with M3R-YFP, GRK2 and arrestin3-mTurquoise; 30 s stimulation with saturating agonist, with or without prestimulation by ACh; also without GRK2 overexpression or with the kinase-deficient GRK2 K220R (recruitment decreased)

By UniProt entry, the sequences of proteins in these tests, tags left out.
UniProt P32120: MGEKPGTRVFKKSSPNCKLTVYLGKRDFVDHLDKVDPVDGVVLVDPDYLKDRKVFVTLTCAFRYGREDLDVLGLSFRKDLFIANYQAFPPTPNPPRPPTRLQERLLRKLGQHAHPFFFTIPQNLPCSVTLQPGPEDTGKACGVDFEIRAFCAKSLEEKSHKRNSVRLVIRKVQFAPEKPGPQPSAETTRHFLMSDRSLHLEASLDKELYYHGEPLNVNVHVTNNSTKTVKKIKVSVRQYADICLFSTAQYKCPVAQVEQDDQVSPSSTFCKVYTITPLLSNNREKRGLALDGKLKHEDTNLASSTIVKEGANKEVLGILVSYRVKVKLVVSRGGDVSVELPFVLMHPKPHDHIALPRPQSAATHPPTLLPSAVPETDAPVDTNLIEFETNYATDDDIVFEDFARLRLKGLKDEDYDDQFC

- binding: binds
Substance: arrestin3-mTurquoise (arrestin3 with mTurquoise fused to the C-terminus) (from UniProt P32120 1-420)

From PMC8635974
